# Experimental data reported in publication PMC5043372.
# The chains behind the UniProt entries cited, without tags or fusion partners.
# UniProt P46108: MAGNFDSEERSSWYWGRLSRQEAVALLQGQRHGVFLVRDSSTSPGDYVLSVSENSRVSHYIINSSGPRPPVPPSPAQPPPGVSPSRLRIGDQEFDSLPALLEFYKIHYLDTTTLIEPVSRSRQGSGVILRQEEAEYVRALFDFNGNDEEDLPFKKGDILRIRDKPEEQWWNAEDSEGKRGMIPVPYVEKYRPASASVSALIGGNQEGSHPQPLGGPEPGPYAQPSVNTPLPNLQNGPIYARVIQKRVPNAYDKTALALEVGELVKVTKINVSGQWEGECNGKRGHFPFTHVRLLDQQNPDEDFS
# Results are given in words; binding and its absence hold for the method and conditions named. In cells and extracts the contact can be indirect. Some binding calls cover weakened binding; strength is not graded here. Sequences can lack the tags named with a protein.
# B1: HA-tagged mouse Bcar1 co-expressed with activated mouse Src (Y529F), tyrosine-phosphorylated (protein, UniProt Q61140 1-874)
# chain: MTVPNVLAKALYDNVAESPDELSFRKGDIMTVLERDTQGLDGWWLCSLHGRQGIVPGNRLKILVGMYDKKPVGPGPGPPATPPQPQPSLPQGVHAPVPPASQYSPMLPTAYQPQSDNVYLVPTPSKTQQGLYQAPGPNPQFQSPPAKQTSTFSKQTPHHSFPSPATDLYQVPPGPGSPAQDIYQVPPSAGIGHDIYQVPPSLDTRGWEGTKPPAKVVVPTRVGQGYVYEAAQTEQDEYDTPRHLLAPGPQDIYDVPPVRGLLPNQYGQEVYDTPPMAVKGPNGRDPLLDVYDVPPSVEKGLLSSSHHSVYDVPPSVSKDVPDGPLLREETYDVPPAFAKPKPFDPTRHPLILAAPPPDSPAAEDVYDVPPPAPDLYDVPPGLRRPGPGTLYDVPRERVLPPEVADGSVVDDGVYAVPPPAEREAPTDGKRLSASSTGSTRSSQSASSLEVVVPGREPLELEVAVESLARLQQGVSTTVAHLLDLVGSASGPGGWRGTSEPQEPPAQDLKAAVAAVHGAVHELLEFARGAVSNATHTSDRTLHAKLSRQLQKMEDVYQTLVVHGQVLDSGRGSPGFTPEDLDRLVACSRAVPEDAKQLASFLHGNASLLFRRTKAPGPGPEGSSSLHPNPTDKASSIQSRPLPSPPKFTSQDSPDGQYENSEGGWMEDYDYVHLQGKEEFEKTQKELLERGNIMRQGKGQLELQQLKQFERLEQEVSRPIDHDLANWTPAQPLVPGRTGGLGPSDRQLLLFYLEQCEANLTTLTDAVDAFFTAVATNQPPKIFVAHSKFVILSAHKLVFIGDTLSRQAKAADVRSQVTHYSNLLCDLLRGIVATTKAAALQYPSPSAAQDMVDRVKELGHSTQQFRRVLGQLAAA
# modifications: phosphotyrosine (phosphorylated by co-expressed active Src; sites not stated)
# B2: HA-tagged mouse Bcar1 expressed without active Src (protein, UniProt Q61140 1-874)
# chain: B1 chain
# B3: RAPGEF1 (C3G) (protein, UniProt Q13905 1-1077)
# chain: MDTDSQRSHLSSFTMKLMDKFHSPKIKRTPSKKGKPAEVSVKIPEKPVNKEATDRFLPEGYPLPLDLEQQAVEFMSTSAVASRSQRQKNLSWLEEKEKEVVSALRYFKTIVDKMAIDKKVLEMLPGSASKVLEAILPLVQNDPRIQHSSALSSCYSRVYQSLANLIRWSDQVMLEGVNSEDKEMVTTVKGVIKAVLDGVKELVRLTIEKQGRPSPTSPVKPSSPASKPDGPAELPLTDREVEILNKTTGMSQSTELLPDATDEEVAPPKPPLPGIRVVDNSPPPALPPKKRQSAPSPTRVAVVAPMSRATSGSSLPVGINRQDFDVDCYAQRRLSGGSHSYGGESPRLSPCSSIGKLSKSDEQLSSLDRDSGQCSRNTSCETLDHYDPDYEFLQQDLSNADQIPQQTAWNLSPLPESLGESGSPFLGPPFQLPLGGHPQPDGPLAPGQQTDTPPALPEKKRRSAASQTADGSGCRVSYERHPSQYDNISGEDLQSTAPIPSVPYAPFAAILPFQHGGSSAPVEFVGDFTAPESTGDPEKPPPLPEKKNKHMLAYMQLLEDYSEPQPSMFYQTPQNEHIYQQKNKLLMEVYGFSDSFSGVDSVQELAPPPALPPKQRQLEPPAGKDGHPRDPSAVSGVPGKDSRDGSERAPKSPDALESAQSEEEVDELSLIDHNEIMSRLTLKQEGDDGPDVRGGSGDILLVHATETDRKDLVLYCEAFLTTYRTFISPEELIKKLQYRYEKFSPFADTFKKRVSKNTFFVLVRVVDELCLVELTEEILKLLMELVFRLVCNGELSLARVLRKNILDKVDQKKLLRCATSSQPLAARGVAARPGTLHDFHSHEIAEQLTLLDAELFYKIEIPEVLLWAKEQNEEKSPNLTQFTEHFNNMSYWVRSIIMLQEKAQDRERLLLKFIKIMKHLRKLNNFNSYLAILSALDSAPIRRLEWQKQTSEGLAEYCTLIDSSSSFRAYRAALSEVEPPCIPYLGLILQDLTFVHLGNPDYIDGKVNFSKRWQQFNILDSMRCFQQAHYDMRRNDDIINFFNDFSDHLAEEALWELSLKIKPRNITRRKTDREEKT
# Target: T1, GFP-tagged Monosiga brevicollis crka1 (Monosiga brevicollis)
# T1 sequence: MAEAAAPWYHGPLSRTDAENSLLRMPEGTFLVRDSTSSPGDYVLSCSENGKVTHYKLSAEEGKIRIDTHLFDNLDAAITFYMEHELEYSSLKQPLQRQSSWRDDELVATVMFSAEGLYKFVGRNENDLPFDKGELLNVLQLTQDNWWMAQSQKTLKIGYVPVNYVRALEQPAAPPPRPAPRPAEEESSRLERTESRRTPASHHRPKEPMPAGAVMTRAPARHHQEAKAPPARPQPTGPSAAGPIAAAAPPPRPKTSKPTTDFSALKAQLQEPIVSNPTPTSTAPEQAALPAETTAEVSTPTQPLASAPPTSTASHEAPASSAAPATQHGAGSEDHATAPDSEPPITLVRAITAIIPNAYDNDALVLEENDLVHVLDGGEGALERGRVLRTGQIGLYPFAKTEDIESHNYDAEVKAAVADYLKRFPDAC
# Experiment: co-IP; HEK293 cells transfected with combinations of plasmids, with or without active Src(Y529F); lysates 48 h after transfection; GFP-tagged proteins precipitated with GFP-Trap_A beads; Western blots (anti-HA, anti-C3G, anti-phosphotyrosine)
row,Binder,binding
1,B1,binds
2,B2,binds weakly
3,B3,binds

# Target: GFP-tagged human CRK (human) (UniProt P46108)
# Experiment: as above
row,Binder,binding
1,B1,binds
2,B2,binds weakly
3,B3,binds
